According to the supplement of paper PMC4371806:
In all, about 2,300 compounds were measured (“plate-normalized OD600 growth (mean of duplicates)”: median about 0.29, lowest 2% from about 0.22 on). The list shows a part of the results.

System: Escherichia coli BW25113
Experiment: plate-normalized OD600 growth (mean of duplicates) (OD600 (normalized)); higher = more growth (less inhibition)
Conditions: 10 µM
Description: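 E. coli BW25113 in LB (100 µl, 96-well, no shaking) was exposed to 10 µM of each compound from a ~30,000-member library and grown at 37°C for 24 h or 15°C for 48 h, in duplicate. Growth was read as OD600 and the duplicate ODs were normalized across screening plates to correct plate-to-plate variation. Hits were >3σ below the mean OD600 at 15°C and <2σ below the mean at 37°C.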

| Compound | plate-normalized OD600 growth (temperature: 15°C, 48 h) | plate-normalized OD600 growth (temperature: 37°C, 24 h) |
| --- | --- | --- |
| CCOC(=O)CC(NC(=O)c1cc(OC)c(OC)c(OC)c1)c1ccc(C)cc1 (stereo not drawn) | 0.247 | 0.627 |
| Cc1ccc(-c2nc(SCC(=O)C(F)(F)F)c(C#N)cc2C)cc1 | 0.261 | 0.623 |
| O=C(O)c1ccc(S(=O)(=O)c2ccc3c(c2)C(=O)N(c2ccccn2)C3=O)cc1 | 0.221 | 0.618 |
| O=C(CN1C(=O)c2ccccc2C1=O)Oc1ccc2ccccc2c1 | 0.244 | 0.599 |
| Cc1nc(N)ncc1Sc1ccccc1 | 0.259 | 0.602 |
| O=C(O)CCC(=O)N1CC(=O)Nc2ccccc21 | 0.222 | 0.624 |
| C=CCNC(=S)Nc1sc(C)c(C)c1C(=O)OCC | 0.226 | 0.637 |
| Cc1c(-c2ccnc(N)n2)nnn1-c1ccc(Cl)cc1Cl | 0.242 | 0.636 |
| CN(C)c1ccc(/C=C/c2cc[n+](C)n2C)cc1 | 0.242 | 0.607 |
| N#CCC(=O)N(Cc1ccccc1F)C(=O)NC1CCCCC1 | 0.263 | 0.647 |
| Cc1cc(/C=N/NC(N)=S)c2c(C)ccc(C(C)C)cc1-2 | 0.23 | 0.606 |
| Nc1ccc(-c2nc3ccc(C(=O)c4ccccc4)cc3[nH]2)cc1 | 0.245 | 0.61 |
| Cn1c(NC(=O)c2ccccc2Cl)nc2ccccc21 | 0.253 | 0.598 |
| Cc1ccc(S(=O)(=O)Nc2ccc(C)c([N+](=O)[O-])c2)cc1 | 0.233 | 0.624 |
| COC(=O)c1ccc(NCC(=O)c2ccc(C(C)(C)C)cc2)cc1 | 0.237 | 0.627 |
| Cc1c(C)n(Cc2ccccc2)c2ccc(C(=O)Nc3ncn[nH]3)cc12 | 0.248 | 0.653 |
| C/C(Cn1nnc([N+](=O)[O-])n1)=N/NC(=O)c1cccnc1 | 0.252 | 0.62 |
| COC(=O)c1cc(-c2ccc3c(c2)OCO3)no1 | 0.232 | 0.626 |
| Cc1cc(Br)c2c(c1)c(N=NC(=Nc1ccccc1)c1ccccn1)c(O)n2C | 0.254 | 0.628 |
| Cc1ccc(-c2csc(-c3cccnc3)n2)cc1C | 0.24 | 0.613 |
| CCCOc1ccc(N2C(=O)CC(NNC(=O)c3ccncc3)C2=O)cc1 (stereo not drawn) | 0.221 | 0.621 |
| CCNS(=O)(=O)c1cc(Cl)sc1Cl | 0.253 | 0.623 |
| O=[N+]([O-])c1ccc(-c2ccc(/C=N/Nc3ccccc3)o2)cc1 | 0.235 | 0.584 |
| O=C(N/N=C/c1c2ccccc2cc2ccccc12)c1cccc(C(F)(F)F)c1 | 0.259 | 0.608 |

15 compounds from above, sorted by SMILES length, ascending:

| Compound | plate-normalized OD600 growth (temperature: 15°C, 48 h) | plate-normalized OD600 growth (temperature: 37°C, 24 h) |
| --- | --- | --- |
| Cc1nc(N)ncc1Sc1ccccc1 | 0.259 | 0.602 |
| CCNS(=O)(=O)c1cc(Cl)sc1Cl | 0.253 | 0.623 |
| Cc1ccc(-c2csc(-c3cccnc3)n2)cc1C | 0.24 | 0.613 |
| Cn1c(NC(=O)c2ccccc2Cl)nc2ccccc21 | 0.253 | 0.598 |
| CN(C)c1ccc(/C=C/c2cc[n+](C)n2C)cc1 | 0.242 | 0.607 |
| N#CCC(=O)N(Cc1ccccc1F)C(=O)NC1CCCCC1 | 0.263 | 0.647 |
| Cc1c(-c2ccnc(N)n2)nnn1-c1ccc(Cl)cc1Cl | 0.242 | 0.636 |
| O=C(CN1C(=O)c2ccccc2C1=O)Oc1ccc2ccccc2c1 | 0.244 | 0.599 |
| COC(=O)c1ccc(NCC(=O)c2ccc(C(C)(C)C)cc2)cc1 | 0.237 | 0.627 |
| Nc1ccc(-c2nc3ccc(C(=O)c4ccccc4)cc3[nH]2)cc1 | 0.245 | 0.61 |
| C/C(Cn1nnc([N+](=O)[O-])n1)=N/NC(=O)c1cccnc1 | 0.252 | 0.62 |
| O=[N+]([O-])c1ccc(-c2ccc(/C=N/Nc3ccccc3)o2)cc1 | 0.235 | 0.584 |
| O=C(N/N=C/c1c2ccccc2cc2ccccc12)c1cccc(C(F)(F)F)c1 | 0.259 | 0.608 |
| Cc1cc(Br)c2c(c1)c(N=NC(=Nc1ccccc1)c1ccccn1)c(O)n2C | 0.254 | 0.628 |
| O=C(O)c1ccc(S(=O)(=O)c2ccc3c(c2)C(=O)N(c2ccccn2)C3=O)cc1 | 0.221 | 0.618 |

(more compounds)

| Compound | plate-normalized OD600 growth (temperature: 15°C, 48 h) | plate-normalized OD600 growth (temperature: 37°C, 24 h) |
| --- | --- | --- |
| CCC(=O)Nc1nc2ccc(C)cc2s1 | 0.246 | 0.603 |
| COc1cc(C2OC(c3cc(C)ccc3[N+](=O)[O-])=NN2C(C)=O)cc(OC)c1OC (stereo not drawn) | 0.248 | 0.619 |
| O=C(NNC(=O)c1ccccc1OCc1ccccc1)c1ccc(Cl)c(Cl)c1 | 0.216 | 0.606 |
| O=C(/C=N/O)Nc1ccccc1C(=O)O | 0.249 | 0.636 |
| N#C/C(=C/c1ccc(-c2ccc(Cl)c(Cl)c2)o1)c1[nH]nc(N)c1C#N | 0.257 | 0.623 |
| CNc1nc(C)c(-c2nc(Nc3cccc(S(N)(=O)=O)c3)ncc2F)s1 | 0.255 | 0.611 |
| CCOc1nn(-c2ccccc2)c(NC2CCCCC2)c1C(F)(F)F | 0.235 | 0.609 |
| Nc1ccc2nonc2c1N | 0.246 | 0.624 |
| CCOC(=O)C1C(=O)C=C(c2cccs2)CC1c1ccc(OC)c(OC)c1Cl (stereo not drawn) | 0.247 | 0.621 |
| O=C(COc1ccc(C(F)(F)F)cc1[N+](=O)[O-])Nc1cccc(C(F)(F)F)c1 | 0.264 | 0.633 |
| CN(C)c1ccc(C=Nc2cc[c-]cc2)cc1.CN(C)c1ccc(C=Nc2cc[c-]cc2)cc1.[Cu+2] | 0.253 | 0.622 |
| COc1ccc(/C=C2\CC/C(=C\c3ccc(OC)c(OC)c3)C2=O)cc1OC | 0.235 | 0.63 |
| Cc1nnsc1C(=O)Nc1ccc(CN2CCS(=O)(=O)CC2)cc1 | 0.244 | 0.614 |
| Cc1cccc2cc[nH]c12 | 0.262 | 0.623 |
| COc1ccc(CCN2C(=O)C(O)=C(C(=O)c3cccs3)C2c2ccccc2F)cc1OC (stereo not drawn) | 0.248 | 0.619 |
| Cc1cc(C(=O)O)ccc1-n1c(C)cc(C=Nc2ccc(C#N)cc2)c1C | 0.24 | 0.619 |
| C/C(=N/O)c1ccn(S(=O)(=O)c2ccc(Cl)cc2)c1 | 0.241 | 0.627 |
| CC(C)COc1ccc(C2NC(=O)NC2=O)cc1 (stereo not drawn) | 0.25 | 0.618 |
| Cc1ccc2cc(C)c(NCc3cccnc3)nc2c1 | 0.237 | 0.605 |
| CCOC(=O)c1ccc(-n2nnnc2C(c2ccc(Cl)cc2Cl)N2CCOCC2)cc1 (stereo not drawn) | 0.241 | 0.645 |
| COC(=O)C1=C(C)C(c2ccc(OC)cc2)NC(=O)N1 (stereo not drawn) | 0.27 | 0.628 |
| O=C(NN1C(=O)c2ccc(C(=O)c3cccc([N+](=O)[O-])c3)cc2C1=O)c1ccncc1 | 0.253 | 0.632 |
| CC(C)(C)C1=CC(=O)C=C(C(C)(C)C)C1=O | 0.243 | 0.621 |
| COc1cc(/C=c2/sc3n(c2=O)C(c2c(OC)ccc4ccccc24)C(C(C)=O)=C(C)N=3)cc(OC)c1OC (stereo not drawn) | 0.254 | 0.616 |

| Compound | plate-normalized OD600 growth (temperature: 15°C, 48 h) | plate-normalized OD600 growth (temperature: 37°C, 24 h) |
| --- | --- | --- |
| CCN(CC)c1ccc(C2C(C(=O)OC3CCCCC3)=C(C)NC3=C2C(=O)CC(c2ccc(Cl)cc2)C3)cc1 (stereo not drawn) | 0.238 | 0.614 |
| Nc1c(C(=O)c2ccc(Br)cc2)sc2nc(-c3ccccc3)cc(-c3ccccc3)c12 | 0.256 | 0.621 |
| CC(=O)C1=C(O)C(=O)N(Cc2ccccc2)C1c1ccc(Cl)cc1 (stereo not drawn) | 0.248 | 0.622 |
| CCc1ccc(NC(=O)CSc2nnc3n(N)cnn23)cc1 | 0.238 | 0.609 |
| O=C1C=C(Sc2ccc([N+](=O)[O-])cc2)C(=O)c2ccccc21 | 0.249 | 0.609 |
| O=c1[nH]c(-c2cn[nH]c2-c2ccc(F)cc2)nc2sc3c(c12)CCCC3 | 0.237 | 0.637 |
| COc1cc([N+](=O)[O-])c(OC)cc1SCC(=O)NNC(=O)c1cc(OC)c(OC)c(OC)c1 | 0.224 | 0.614 |
| COc1ccc(NC(=O)c2cc(C(F)(F)F)cc(C(F)(F)F)c2)cn1 | 0.239 | 0.59 |
| O=C(/C=C/c1ccccc1)Oc1ccc(-c2cnc3ccccc3n2)cc1 | 0.253 | 0.632 |
| C/C(=N\N=C(/C)c1nnn(-c2nonc2N)c1C)c1ccc(Cl)cc1 | 0.245 | 0.616 |
| COC(=O)C1=CN(CC2CCCO2)C=C(C(=O)OC)C1c1ccc(C)s1 (stereo not drawn) | 0.257 | 0.632 |
| CCCCCCCCCC(=O)Oc1ccc(C)cc1-n1nc2ccccc2n1 | 0.239 | 0.603 |
| COC(=O)c1ccc(C(=O)OC)nc1 | 0.268 | 0.653 |
| COc1cc(C)cc(C(=O)O)c1NC(=O)C(C)(C)C | 0.226 | 0.647 |
| C=CCn1c2ccccc2c2nnc(SCC(=O)Nc3ncccn3)nc21 | 0.245 | 0.599 |
| COc1ccccc1N1C(=O)C=C(c2ccc(Cl)cc2)C1=O | 0.26 | 0.628 |
| Cc1ccc2nc(NC(=O)C3CCCN3C(=O)Oc3ccccc3)sc2c1 (stereo not drawn) | 0.258 | 0.648 |
| CSC(=NC#N)N1CCN(c2ccc([N+](=O)[O-])cn2)CC1 | 0.244 | 0.644 |
| CCCC(C)c1ccc(O)c(N=Cc2c(C)c(Cl)c(C)c([N+](=O)[O-])c2O)c1 (stereo not drawn) | 0.247 | 0.613 |
| Nc1nnc(Cc2ccc([N+](=O)[O-])cc2)s1 | 0.249 | 0.616 |
| CCOc1ccc(-c2[nH]nc3c2C2(C(=O)Nc4ccc(C)c(Br)c42)C(C#N)=C(N)O3)cc1 (stereo not drawn) | 0.245 | 0.6 |
| CC(C)(C)OC(=O)N1CCC(C(N)=O)CC1 | 0.242 | 0.616 |
| O=C(c1ccco1)N1CCC(c2ccccc2)C1 (stereo not drawn) | 0.201 | 0.642 |
| O=C(O)/C=C/c1ccc(S(=O)(=O)NN2C(=O)/C(=C/c3ccco3)N=C2c2ccccc2)cc1 | 0.252 | 0.61 |

| Compound | plate-normalized OD600 growth (temperature: 15°C, 48 h) | plate-normalized OD600 growth (temperature: 37°C, 24 h) |
| --- | --- | --- |
| CC(=O)c1csc(-c2ccc(C(F)(F)F)cc2)n1 | 0.253 | 0.622 |
| O=C1CC2(CCCC2)C(=O)N1CCNc1nccc(C(F)(F)F)n1 | 0.261 | 0.637 |
| COc1cc(OC)cc(-c2nc(-c3nonc3N)no2)c1 | 0.238 | 0.661 |
| CCCCCCOc1cccc(N2C(=O)C(=O)C(=C(O)c3ccccc3)C2c2ccc(C(=O)OC)cc2)c1 (stereo not drawn) | 0.239 | 0.628 |
| NC(=S)c1ccc2nonc2c1 | 0.253 | 0.612 |
| CCc1ccc(/C(C)=N/NC(=O)CNC(=O)c2ccc(Cl)cc2)cc1 | 0.25 | 0.616 |
| CCCCOC(=O)c1ccc(NC(=O)Nc2ccc(Cl)c(Cl)c2)cc1 | 0.254 | 0.621 |
| N#Cc1nccnc1Sc1ccc(Cl)cc1 | 0.242 | 0.599 |
| COc1ccc(N=NC(C(=N)N)C(N)=O)cc1 (stereo not drawn) | 0.235 | 0.652 |
| CS/C(Nc1ccc(Br)cc1)=C(/C(=O)c1ccc(Br)cc1)n1ccnc1 | 0.249 | 0.606 |
| O=C(N/N=C/c1ccc(OCc2ccccc2)cc1)C(=O)NC1CC1 | 0.258 | 0.637 |
| COc1ccc(OC)c(S(=O)(=O)n2c([N+](=O)[O-])cnc2C)c1 | 0.255 | 0.612 |
| O=C1c2ccccc2C(=O)N1CN1CCC(O)(c2ccc(Cl)cc2)CC1 | 0.253 | 0.614 |
| Nc1c(C(=O)c2ccc(Br)cc2)sc2nc(-c3cccs3)cc(C(F)(F)F)c12 | 0.142 | 0.578 |
| CCOC(=O)c1ccc(Oc2ccc(Cl)cc2Cl)c([N+](=O)[O-])c1 | 0.242 | 0.603 |
| Cc1ccc(-c2nc(-c3c[nH]c4ccccc34)[nH]c2-c2ccc(C)cc2)cc1 | 0.243 | 0.618 |
| NC(=O)/C(=N/O)C1=NC2(CCCCC2)Cc2ccccc21 | 0.248 | 0.653 |
| Cc1c(Br)sc2ccc(Cl)cc12 | 0.247 | 0.612 |
| COc1ccc(C(=O)[C@@H]2[C@@H](c3cccs3)C(C#N)(C#N)[C@H]3C=Cc4ccccc4N23)cc1 | 0.251 | 0.63 |
| O=C(Nc1ccccc1)Nc1ccc(C(F)(F)F)cc1Br | 0.234 | 0.583 |
| CCOc1ccc(S(=O)(=O)NCC23CC4CC(CC(C4)C2)C3)cc1 | 0.267 | 0.614 |
| CC(C)(C)NC(=O)c1cc(NC(=O)C(F)(F)F)cc(NC(=O)C(F)(F)F)c1 | 0.234 | 0.605 |

Three structures from above, arranged by molecular weight, high to low.

| Compound | plate-normalized OD600 growth (temperature: 15°C, 48 h) | plate-normalized OD600 growth (temperature: 37°C, 24 h) |
| --- | --- | --- |
| O=C(COc1ccc(C(F)(F)F)cc1[N+](=O)[O-])Nc1cccc(C(F)(F)F)c1 | 0.264 | 0.633 |
| C/C(=N\N=C(/C)c1nnn(-c2nonc2N)c1C)c1ccc(Cl)cc1 | 0.245 | 0.616 |
| CCC(=O)Nc1nc2ccc(C)cc2s1 | 0.246 | 0.603 |
